{"sequences": {"note": "Protein sequences, listed by entry. Tags and fused reporters are not part of them.", "UniProt P51784": "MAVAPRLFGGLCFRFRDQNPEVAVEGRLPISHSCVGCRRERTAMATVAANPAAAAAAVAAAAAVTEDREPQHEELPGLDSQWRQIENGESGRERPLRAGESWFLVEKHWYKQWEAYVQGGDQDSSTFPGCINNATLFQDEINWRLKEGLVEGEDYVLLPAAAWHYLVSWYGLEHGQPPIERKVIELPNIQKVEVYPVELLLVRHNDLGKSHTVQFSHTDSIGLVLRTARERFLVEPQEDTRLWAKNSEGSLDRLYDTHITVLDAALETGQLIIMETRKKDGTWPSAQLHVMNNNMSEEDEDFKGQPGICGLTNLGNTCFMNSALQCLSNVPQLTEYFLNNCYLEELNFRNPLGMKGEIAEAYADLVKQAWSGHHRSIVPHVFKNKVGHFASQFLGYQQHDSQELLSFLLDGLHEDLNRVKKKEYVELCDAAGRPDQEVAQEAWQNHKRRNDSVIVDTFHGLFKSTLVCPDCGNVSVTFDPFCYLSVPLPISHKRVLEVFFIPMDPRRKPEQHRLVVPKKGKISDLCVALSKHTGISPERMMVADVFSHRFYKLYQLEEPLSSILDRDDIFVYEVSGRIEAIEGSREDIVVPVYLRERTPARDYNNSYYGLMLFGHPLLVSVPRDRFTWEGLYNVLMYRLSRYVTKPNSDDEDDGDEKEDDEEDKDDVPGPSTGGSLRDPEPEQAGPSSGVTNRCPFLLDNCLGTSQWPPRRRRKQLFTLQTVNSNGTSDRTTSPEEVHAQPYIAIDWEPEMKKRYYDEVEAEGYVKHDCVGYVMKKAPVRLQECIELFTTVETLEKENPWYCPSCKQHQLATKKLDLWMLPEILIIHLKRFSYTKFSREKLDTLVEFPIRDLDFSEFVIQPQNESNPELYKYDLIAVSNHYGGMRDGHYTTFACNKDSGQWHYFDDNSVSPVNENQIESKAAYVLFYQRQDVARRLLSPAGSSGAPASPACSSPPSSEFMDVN"}, "source": "paper PMC10974697", "molecules": {"B1": {"name": "Gremlin-1 (protein, UniProt O60565 25-184)", "chain": "KKKGSQGAIPPPDKAQHNDSEQTQSPQQPGSRNRGRGQGRGTAMPGEEVLESSQEALHVTERKYLKRDWCKTQPLKQTIHEEGCNSRTIINRFCYGQCNSFYIPRHIRKEEGSFQSCSFCKPKKFTTMMVTLNCPELQPPTKKKRVTRVKQCRCISIDLD"}}, "key": {"[1]": {"biological_target": "T1, Gremlin-1 (human (endogenous in A549)) (UniProt O60565)", "T1 sequence": "B1 chain", "experiment": "co-IP; A549 cell lysates; anti-USP11 or anti-GREM1 antibody (or control IgG) on magnetic beads, incubated with lysate overnight at 4 °C; precipitates analysed by Western blot"}, "[2]": {"biological_target": "ubiquitin-specific protease 11 (human (endogenous in A549)) (UniProt P51784)", "experiment": "co-IP; A549 cell lysates; anti-USP11 or anti-GREM1 antibody (or control IgG) on magnetic beads, incubated with lysate overnight at 4 °C; precipitates analysed by Western blot"}}, "note": "These are yes or no findings as the source states them, for the method shown. In cells and extracts the contact can be indirect. Some results given as binding are weak or reduced against the parent protein; the word gives no strength.", "data": [{"molecule": "ubiquitin-specific protease 11 (from UniProt P51784 1-963) (enzyme)", "values": [{"measurement": "binding", "setting": "[1]", "value": "binds"}]}, {"molecule": "B1", "values": [{"measurement": "binding", "setting": "[2]", "value": "binds"}]}]}
